Measured data: PubChem BioAssay AID743121 (NCATS, 2013)

Aim: 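Genes whose silencing strengthens cell killing by camptothecin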 (primary screen)
Cell system: MDA-MB-231 cells, a human breast cancer line
Knock-down reagent: single siRNA against human genes, 20 nM siRNA (0.8 pmol per well)
Duration: 120 h (drug added 48 h after transfection, read 72 h later)
Challenge: camptothecin 20 nM (about EC30) for 72 h; vehicle 0.1% DMSO in parallel plates
Read-out: 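CellTiter-Glo ATP signal, scaled to control siRNA as percent viability; sensitisation given as log2 of untreated divided by camptothecin-treated viability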
Scale: log2 vehicle/camptothecin viability: higher = stronger sensitisation to camptothecin; viability with camptothecin: higher = more viable cells
Call rule: 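Active genes have an RSA gene-level p-value below 0.001, computed from the ratios of their separate siRNAs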
In all, the deposit lists about 26,000 reagents; shown is an unselected part. Of all reagents, 167 (0.63%) got an active call. 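Calls are per gene from RSA p-values that are not deposited; an individual active-marked siRNA can sensitise only weakly.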 The numbers tell different reagents against one gene apart. Not all columns of the deposit are shown. Reagent sequences are not shown.

The first 4 records, ahead of the listing:
target gene | siRNA no. | log2 vehicle/camptothecin viability | viability with camptothecin (% of control) | Call
KCNB1 | 1 | 0.317 | 71.9 | inactive
KCNB1 | 2 | -0.725 | 117 | inactive
KCNB1 | 3 | -0.256 | 76.9 | inactive
KCNB1 | 4 | 0.00831 | 75.4 | inactive

The listing, from the first entry:
target gene | siRNA no. | log2 vehicle/camptothecin viability | viability with camptothecin (% of control) | Call
KCNB1 | 1 | 0.317 | 71.9 | inactive
KCNB1 | 2 | -0.725 | 117 | inactive
KCNB1 | 3 | -0.256 | 76.9 | inactive
KCNB1 | 4 | 0.00831 | 75.4 | inactive
MILR1 | 1 | -0.433 | 78.7 | inactive
MILR1 | 2 | -0.155 | 78 | inactive
MILR1 | 3 | -0.322 | 89.7 | inactive
FZD4 | 1 | -0.0871 | 79.7 | inactive
FZD4 | 2 | -0.395 | 82.7 | inactive
FZD4 | 3 | -0.503 | 90.8 | inactive
FZD4 | 4 | -0.284 | 84.4 | inactive
CIDEA | 1 | -0.234 | 93.3 | inactive
CIDEA | 2 | -0.00383 | 95 | inactive
CIDEA | 3 | -0.251 | 68.7 | inactive
CIDEA | 4 | -0.269 | 106 | inactive
VEGFC | 1 | 0.607 | 39.9 | inactive
VEGFC | 2 | -0.0117 | 63.4 | inactive
VEGFC | 3 | 0.489 | 26.5 | inactive
TCF7L1 | 1 | -0.642 | 62.6 | inactive
TCF7L1 | 2 | -0.0395 | 110 | inactive
TCF7L1 | 3 | -0.189 | 70 | inactive
TCF7L1 | 4 | -0.315 | 66.7 | inactive
TNNI3K | 1 | -0.07 | 101 | inactive
TNNI3K | 2 | -0.123 | 57.6 | inactive
TNNI3K | 3 | -0.272 | 27.1 | inactive
TNNI3K | 4 | -0.08 | 104 | inactive
ALDH3A1 | 1 | 0.629 | 29.8 | inactive
ALDH3A1 | 2 | -0.282 | 83.3 | inactive
ALDH3A1 | 3 | -0.526 | 39 | inactive
ALDH3A1 | 4 | -0.592 | 25.6 | inactive
TRIM38 | 1 | -0.15 | 118 | inactive
TRIM38 | 2 | -0.231 | 123 | inactive
TRIM38 | 3 | 0.00198 | 76.7 | inactive
TRIM38 | 4 | 0.233 | 69.1 | inactive
NME8 | 1 | -0.498 | 94.7 | inactive
NME8 | 2 | 0.302 | 55.6 | inactive
NME8 | 3 | 0.437 | 35 | inactive
NME8 | 4 | -0.00418 | 75.7 | inactive
EWSR1 | 1 | -0.27 | 55 | inactive
EWSR1 | 2 | 0.465 | 17.5 | inactive
EWSR1 | 3 | -0.33 | 61.9 | inactive
EWSR1 | 4 | 0.792 | 28.2 | inactive
METTL21C | 1 | 0.294 | 73.7 | inactive
METTL21C | 2 | 0.002 | 84.9 | inactive
METTL21C | 3 | 0.218 | 44.1 | inactive
METTL21C | 4 | 0.109 | 105 | inactive
CIP2A | 1 | 0.0335 | 53.5 | inactive
CIP2A | 2 | 0.208 | 72.8 | inactive
CIP2A | 3 | -0.0984 | 76.3 | inactive
CIP2A | 4 | -0.0729 | 74 | inactive
DNAJC14 | 1 | 0.0847 | 96.8 | inactive
DNAJC14 | 2 | 0.845 | 23.1 | inactive
DNAJC14 | 3 | -0.517 | 115 | inactive
DNAJC14 | 4 | 0.557 | 62.5 | inactive
ABCC2 | 1 | -0.0938 | 18.5 | inactive
ABCC2 | 2 | 0.2 | 32.1 | inactive
ABCC2 | 3 | -0.0996 | 63.4 | inactive
ABCC2 | 4 | 0.14 | 104 | inactive
GPD2 | 1 | -0.0154 | 90.8 | inactive
GPD2 | 2 | -0.327 | 32 | inactive
GPD2 | 3 | 0.0318 | 67.9 | inactive
GPD2 | 4 | -0.0771 | 113 | inactive
BAIAP3 | 1 | -0.0353 | 45.7 | inactive
BAIAP3 | 2 | 0.769 | 16.9 | inactive
BAIAP3 | 3 | -0.197 | 72.6 | inactive
BAIAP3 | 4 | -0.145 | 89.5 | inactive
CPT1A | 1 | -0.0946 | 84.6 | inactive
CPT1A | 2 | -0.039 | 100 | inactive
CPT1A | 3 | -0.12 | 97.3 | inactive
CPT1A | 4 | -0.0732 | 80.7 | inactive
